According to the supplement of paper PMC9233669:
Variants at the floor of the assay are shown more often than the library holds them.

Experiments:
[1] = tested on: biotinyl-Ile-oxazolone; test: self-aminoacylation, catalytic enhancement (BIO) (fold over background); higher = more active; k-Seq, kA / k0A0; sequences stand for … in GGGAAUGGAUCCACAUCUACGAAUUC…UUCACUGCAGACUUGACGAAGCUG
Procedure, shortened: (§1)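 Mutagenized RNA pools with a 21-nt variable region (0.43 μM) reacted with each biotinyl-aminoacyl-oxazolone at 2–1250 μM. Reactions ran in 50 μL HEPES/NaCl/KCl/MgCl2/CaCl2 buffer with 5% acetonitrile, pH 6.9–7.0, for 90 minutes at room temperature. Streptavidin-captured RNA was quantified by triplicate qPCR and Illumina sequencing, and per-sequence fraction reacted was fit to a pseudo-first-order model with 1000 bootstraps. Catalytic enhancement is median kA divided by the uncatalyzed rate, the low-activity peak of a bimodal Gaussian fit.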

[2] = tested on: biotinyl-Phe-oxazolone; test: self-aminoacylation, catalytic enhancement (BFO) (fold over background); higher = more active; k-Seq, kA / k0A0; sequences stand for … in GGGAAUGGAUCCACAUCUACGAAUUC…UUCACUGCAGACUUGACGAAGCUG
Procedure, shortened: as §1

[3] = tested on: biotinyl-Trp-oxazolone; test: self-aminoacylation, catalytic enhancement (BWO) (fold over background); higher = more active; k-Seq, kA / k0A0; sequences stand for … in GGGAAUGGAUCCACAUCUACGAAUUC…UUCACUGCAGACUUGACGAAGCUG
Procedure, shortened: as §1

[4] = tested on: biotinyl-Val-oxazolone; test: self-aminoacylation, catalytic enhancement (BVO) (fold over background); higher = more active; k-Seq, kA / k0A0; sequences stand for … in GGGAAUGGAUCCACAUCUACGAAUUC…UUCACUGCAGACUUGACGAAGCUG
Procedure, shortened: as §1

[5] = tested on: biotinyl-Leu-oxazolone; test: self-aminoacylation, catalytic enhancement (BLO) (fold over background); higher = more active; k-Seq, kA / k0A0; sequences stand for … in GGGAAUGGAUCCACAUCUACGAAUUC…UUCACUGCAGACUUGACGAAGCUG
Procedure, shortened: as §1

[6] = tested on: biotinyl-Met-oxazolone; test: self-aminoacylation, catalytic enhancement (BMO) (fold over background); higher = more active; k-Seq, kA / k0A0; sequences stand for … in GGGAAUGGAUCCACAUCUACGAAUUC…UUCACUGCAGACUUGACGAAGCUG
Procedure, shortened: as §1

Sequence | self-aminoacylation [1] | self-aminoacylation [2] | self-aminoacylation [3] | self-aminoacylation [4] | self-aminoacylation [5] | self-aminoacylation [6]
AAAUUCGCUAAUAGUCGCAAG [Fam3.1 aminoacylation ribozyme variant] | 2.89 | 2.65 | 2.09 | 1.82 | 2.19 | 2.31
AAAUUUGCUAAUAUUCGCAAG [Fam3.1 aminoacylation ribozyme variant] | 1.96 | 1.34 |  | 1.77 | 1.4 | 1.57
AAGAUUGCUAAUAGGCGCAAG [Fam3.1 aminoacylation ribozyme variant] | 1.75 | 1.34 |  | 1.36 | 1.47 | 1.27
AAGCUUGCUAAUAUUCGCAAG [Fam3.1 aminoacylation ribozyme variant] |  | 1.43 |  |  | 1.97 | 1.64
AAGUGUGCUAAUCGUCGCAAG [Fam3.1 aminoacylation ribozyme variant] | 1.49 | 1.88 |  | 1.62 | 1.23 | 1.26
AAGUUGGCUAAUAGUCUCAAG [Fam3.1 aminoacylation ribozyme variant] | 1.36 | 1.62 |  | 1.23 | 1.21 | 1.36
AAGUUUGCUAUUAGUCGCAGG [Fam3.1 aminoacylation ribozyme variant] | 1.39 | 1.83 |  | 1.37 | 1.39 | 1.22
AAUCACCUAGGUCAUAGGGUG [Fam2.2 aminoacylation ribozyme variant] | 1.88 | 1.28 |  | 1.72 | 1.7 | 1.29
AAUCACCUAGGUCAUCAGGUG [Fam2.2 aminoacylation ribozyme variant] | 1.58 | 1.43 |  | 1.75 | 1.39 | 1.53
AUUACGCUGGUCAUCGAGCGA [Fam2.1 aminoacylation ribozyme variant] | 1.46 | 0.719 |  | 1.69 | 1.3 | 1.37
AUUAUCCUGGUCAUCGAGGGA [Fam2.1 aminoacylation ribozyme variant] | 1.62 | 1.3 | 1.38 | 1.46 |  | 1.67
AUUCUCCUAGGUCAUCGGGGG [Fam2.2 aminoacylation ribozyme variant] |  | 1.58 |  |  |  | 
AUUGCCGUGGUCAUCGAGUGA [Fam2.1 aminoacylation ribozyme variant] | 2.89 |  | 5.71 | 3.45 | 6.18 | 4.92
AUUUACCAAGGUCAUCGGGUG [Fam2.2 aminoacylation ribozyme variant] | 4.61 |  | 7.11 | 4.6 | 9.69 | 7.36
CAAAACUUCAAGCAAUCGGUC [Fam1B.1 aminoacylation ribozyme variant] | 1.16 |  | 10.6 | 1.17 | 1.37 | 1.12
CAACUGCAAACAAUCGGUCUG [Fam1A.1 aminoacylation ribozyme variant] | 1.21 |  | 1.26 | 1.23 | 1.01 | 1.09
CAACUUCAAACAAUCGAUCUG [Fam1A.1 aminoacylation ribozyme variant] | 0.806 |  | 1.24 | 0.759 | 0.64 | 0.567
CCACAAUUCAAGCAAUCGCUC [Fam1B.1 aminoacylation ribozyme variant] |  | 1.38 | 1.52 |  |  | 
CCACACAUCAAGCAAUCGGGC [Fam1B.1 aminoacylation ribozyme variant] |  | 0.919 |  | 1.72 | 1.47 | 1.73
CCACACCUCAAGCAAUCGGCC [Fam1B.1 aminoacylation ribozyme variant] | 1.76 | 0.88 |  |  | 1.65 | 1.86
CCACACUGCAAGCCAUCGGUC [Fam1B.1 aminoacylation ribozyme variant] | 1.51 | 1.01 |  | 1.93 | 1.56 | 1.48
CCACACUUCAAGAAUUCGGUC [Fam1B.1 aminoacylation ribozyme variant] | 1.93 |  | 1.78 | 1.77 | 1.88 | 1.84
CCACACUUCAAGCAACCGGUU [Fam1B.1 aminoacylation ribozyme variant] | 1.96 | 1.42 | 1.59 |  | 1.29 | 1.72
CCACACUUCAAGCAAUCGAUC [Fam1B.1 aminoacylation ribozyme variant] | 0.559 |  | 0.751 | 0.765 | 0.508 | 0.421
CCACACUUCAAGCCAUCGCUC [Fam1B.1 aminoacylation ribozyme variant] | 1.81 | 1.61 |  | 1.67 |  | 1.86
CCACUUCAAACAACCGGUCUG [Fam1A.1 aminoacylation ribozyme variant] | 1.31 |  | 1.78 | 1.13 | 1.24 | 1.13
CCACUUCAAAGAAUCGGUCUG [Fam1A.1 aminoacylation ribozyme variant] | 1.15 |  | 8.92 | 1.13 | 1.32 | 1.04
CCAGACUUCAAGCAUUCGGUC [Fam1B.1 aminoacylation ribozyme variant] |  | 1.72 | 1.86 |  |  | 

Sequence | self-aminoacylation [1] | self-aminoacylation [2] | self-aminoacylation [3] | self-aminoacylation [4] | self-aminoacylation [5] | self-aminoacylation [6]
CCAGUCUUCAAGCAAUCGGUC [Fam1B.1 aminoacylation ribozyme variant] | 1.67 |  | 38.6 | 1.63 | 2.8 | 1.79
CCAUACUUCCAGCAAUCGGUC [Fam1B.1 aminoacylation ribozyme variant] | 1.45 |  | 0.815 | 1.39 | 1.1 | 1.06
CCCCACUUCAAGCAAUAGGUC [Fam1B.1 aminoacylation ribozyme variant] | 0.812 |  | 1.17 | 0.936 | 0.673 | 0.722
CCCCACUUGAAGCAAUCGGUC [Fam1B.1 aminoacylation ribozyme variant] | 1.58 | 1.36 |  |  | 1.5 | 1.48
CCGCACUUCAAGUAAUCGGUC [Fam1B.1 aminoacylation ribozyme variant] | 1.3 |  | 14.5 | 1.37 | 1.54 | 1.4
CGAAACUUCAAGCAAUCGGUC [Fam1B.1 aminoacylation ribozyme variant] | 1.17 |  | 5.43 | 1.18 | 0.993 | 0.901
CGACACUUCAGGCAAUCGGUC [Fam1B.1 aminoacylation ribozyme variant] | 1.36 |  | 1.71 | 1.62 | 1.59 | 1.18
CGACUUCAAACAAUCGGUCUC [Fam1A.1 aminoacylation ribozyme variant] | 1.52 |  | 31.1 | 1.35 | 1.99 | 1.59
CGACUUCAGACAAUCGGUCUG [Fam1A.1 aminoacylation ribozyme variant] | 1.2 |  | 1.04 | 1.37 | 1.85 | 1.19
CUACAUCAAACAAGCGGUCUG [Fam1A.1 aminoacylation ribozyme variant] | 1.28 |  | 1.27 | 0.953 | 1.12 | 1.01
CUACCUCAAACAUUCGGUCUG [Fam1A.1 aminoacylation ribozyme variant] | 1.66 |  | 3.08 | 1.87 | 2.13 | 1.81
CUACGUCAAACAAUUGGUCUG [Fam1A.1 aminoacylation ribozyme variant] | 1.06 |  | 0.921 | 1.05 | 0.931 | 1.11
CUACGUCGAACAAUCGGUCUG [Fam1A.1 aminoacylation ribozyme variant] | 1.7 |  | 1.3 | 1.93 | 1.83 | 1.91
CUACUACAAACAAUAGGUCUG [Fam1A.1 aminoacylation ribozyme variant] | 0.826 |  | 0.456 | 0.94 | 0.718 | 0.635
CUACUGCAAACAAGCGGUCUG [Fam1A.1 aminoacylation ribozyme variant] | 1.59 |  | 1.52 | 1.35 | 0.929 | 1.22
CUACUUCAAACAAUCGUUCAG [Fam1A.1 aminoacylation ribozyme variant] | 0.658 |  | 0.523 | 0.769 | 0.497 | 0.566
CUACUUCAACCAUUCGGUCUG [Fam1A.1 aminoacylation ribozyme variant] | 1.21 |  | 1.52 | 1.26 | 1.19 | 1.17
CUACUUCAGACAUUCGGUCUG [Fam1A.1 aminoacylation ribozyme variant] | 1.36 |  | 1.96 | 1.42 | 1.4 | 1.78
CUACUUGAAACAAGCGGUCUG [Fam1A.1 aminoacylation ribozyme variant] | 1.27 |  | 1.05 | 1.27 | 1.2 | 1.5
CUACUUUCAACAAUCGGUCUG [Fam1A.1 aminoacylation ribozyme variant] | 0.99 |  | 10.3 | 1.06 | 1.09 | 0.895
CUCCUUCAAACACUCGGUCUG [Fam1A.1 aminoacylation ribozyme variant] | 1.41 |  | 1.33 | 1.39 | 1.46 | 1.08
CUUCACCUAGGUCAUCGGGCG [Fam2.2 aminoacylation ribozyme variant] |  | 1.25 |  |  |  | 
GAGUUUGCUAAGAGUCGCAAG [Fam3.1 aminoacylation ribozyme variant] | 0.978 |  | 1.97 | 1.09 | 0.723 | 0.769
GAGUUUGCUAAUAGUCGCACG [Fam3.1 aminoacylation ribozyme variant] | 1.53 |  | 1.25 | 1.63 | 1.04 | 1.66
UAGUUUGCUAAUAGUCGCAUG [Fam3.1 aminoacylation ribozyme variant] | 1.58 |  | 1.11 | 1.19 | 1.32 | 1.61
UUACUGCAAACAAUCGGUCUG [Fam1A.1 aminoacylation ribozyme variant] | 1.42 |  | 1.26 | 1.39 | 1.22 | 1.17
UUUACCCUGGUCGUCGAGUGA [Fam2.1 aminoacylation ribozyme variant] | 1.04 |  | 1.24 | 0.984 | 0.835 | 1.16
